62 molecules from PubChem BioAssay AID493014 (National Center for Advancing Translational Sciences (NCATS), 2011) can be followed below.

The test is described as follows: qHTS Assay to Find Inhibitors of Chronic Active B-Cell Receptor Signaling. Conditions: ABC-DLBCL IkBa-CBG/CBR reporter, luminescence ratio (green luciferase fused to IkBa over red control in TMD8 lymphoma cells), 4 h. Put shortly:
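Cell line TMD8 (human ABC DLBCL), stably expressing tet-inducible CBG68-IkBa fusion and CBR; IMDM/0.5% FBS; cpd up to 46 uM; dox induction, 4 h, 37C/5% CO2; dual luminescence; green/red ratio; MG132 control.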

Where [1] appears, read: measured here: CBR red luminescence, cell number.
[2] abbreviates: measured here: IkBa-CBG green luminescence.

Some of the results follow. Further columns of the screen follow, without active or inactive calls. The list favours compounds with an active or inconclusive main result. Words in brackets tell the shape of the fitted curve; partial curves, single points and poor fits give uncertain potencies.

In the case of `O=C(CCN1C(=O)/C(=C/c2ccc3c(c2)OCO3)SC1=S)NNC(=O)c1cccnc1`, the AC50 under setting [1] was 10 µM [falling, partial curve].
As to `O=C(NCc1ccco1)c1sc2cccc(F)c2c1Cl`, the AC50 under setting [1] is 3.66 µM [rising, full curve, poor fit].
On the same count and under the same terms, the same measure for `CCOC(=O)COn1c(=O)c(-c2cc3ccccc3o2)[n+]([O-])c2ccccc21`: 7.94 µM [falling, partial curve, poor fit]; for `CCN(CC)CCOC(=O)c1ccc(NC(=O)CCCN2C(=O)/C(=C\c3cccs3)SC2=S)cc1`: 1.41 µM [falling, full curve].
In the case of `C[C@@]12C(=O)Nc3cc(Cl)ccc3C(=O)N1[C@H]1c3ccccc3OC[C@@H]1[C@@H]2c1ccccc1`, the AC50 runs as follows: under setting [1], 1.64 µM [falling, full curve]; under setting [2], 2.31 µM [rising, full curve, poor fit].
`Cc1ccc2c(c1)N(CC(=O)N(Cc1ccccn1)Cc1ccco1)C(=O)C(C(C)C)O2` (configuration not stated): under setting [1], the AC50 is 32.6 µM [falling, partial curve, poor fit].
Same read-out and setting: as for `CCN(CC)S(=O)(=O)c1cc(NC(=O)Cc2ccsc2)ccc1C`, the figure is 35.5 µM [falling, single point].
Still for that read-out and setting: as for `COc1cccc(-c2cc(C(=O)Nc3cccnc3)c3ccccc3n2)c1`, the figure is 8.91 µM [falling, partial curve, poor fit].
`Cc1ccc(OCCC(=O)OCC(=O)NC(=O)NC2CCCCC2)cc1`: the AC50 under setting [1] was 2.06 µM [falling, full curve].
`COC(=O)C1=C(C)N(Cc2ccccc2)C(=NCc2cccc(Cl)c2)N[C@H]1c1cccc(F)c1`: the AC50 under setting [1] was 11.2 µM [falling, partial curve] and the AC50 under setting [2] was 17.8 µM [rising, single point].
With `CCn1c(-c2cccc(Br)c2)n[nH]c1=S`, the concentration at half-maximal activity (AC50) under setting [1] was 6.51 µM [rising, single point].
Regarding `O=c1oc2ccccc2cc1-c1nc2ccccc2o1`, the AC50 under setting [1] was 35.5 µM [falling, single point].
As to `COc1ccccc1N1CCN(C(=O)C(=O)c2cn(CC(=O)N3CCOCC3)c3ccccc23)CC1`, the AC50 under setting [1] was 14.1 µM [falling, single point].
Regarding `Cc1cnc(NC(=O)Nc2ccccc2)c(C)n1`, under setting [1], the concentration at half-maximal activity (AC50) is 14.1 µM [rising, single point].
As for `O=C(CCCN1C(=O)/C(=C/c2ccccc2)SC1=S)N1CCOCC1`, the AC50 by setting is: under setting [1], 2 µM [falling, partial curve]; under setting [2], 12.6 µM [falling, partial curve, poor fit].
On to `COc1ccc(-c2nc(CCNC(=O)c3ccc(Br)o3)cs2)cc1`, for which the AC50 under setting [1] is 9.2 µM [falling, partial curve].
On the same count and under the same terms, the same measure for `CSc1ccccc1C(=O)NC1CCCCC1`: 3.66 µM [rising, single point]; for `CC1Cc2ccccc2N1C(=O)COC(=O)c1ccc(O)cc1` (configuration not stated): 14.1 µM [falling, partial curve, poor fit]; for `COc1nc(N/N=C/c2ccc(-c3cccc([N+](=O)[O-])c3)o2)nc(N2CCOCC2)n1`: 5.8 µM [rising, partial curve, poor fit].
The same measure, in the same setting: the same measure for `c1ccc2[nH]c(CSc3nc4ccccc4s3)nc2c1`: 11.2 µM [falling, single point]; for `COc1ccc(C2CC(=O)c3c(C)nc(N4CCN(c5ccccc5)CC4)nc3C2)cc1` (configuration not stated): 0.58 µM [falling, full curve, poor fit]; for `CN(C)C(=O)c1nc2ccc(Cl)cn2c1CNCc1cccc(OC(F)(F)F)c1`: 0.0891 µM [rising, full curve, poor fit].
With `COC(=O)c1[nH]c2ccccc2c1NC(=O)CN1CCN(c2cccc(OC)c2)C(C)C1` (configuration not stated), the AC50 under setting [1] was 3.26 µM [rising, single point].
The same measure, in the same setting: the same measure for `C=CCSc1nc2sc3c(c2c(=O)[nH]1)CC(C)(CC)OC3` (configuration not stated): 3.16 µM [rising, full curve, poor fit]; for `CCOc1ccc(-n2c(-c3ccc(Br)cc3)c[n+]3c2CCCCC3)cc1`: 35.5 µM [falling, single point].
As for `CCC(C)NC(=O)c1cc(-c2ccc3c(c2)OCO3)on1` (configuration not stated), under setting [1], the AC50 is 7.08 µM [falling, partial curve].
Take `c1ccc2[nH]c(CSc3nc4ccccc4o3)nc2c1`: under setting [1], the AC50 was 25.9 µM [falling, single point].
On to `COc1ccc(C2NC(=O)C(C#N)=C(S)N2c2ccccc2)cc1OC` (configuration not stated), for which the concentration at half-maximal activity (AC50) under setting [1] is 11.2 µM [rising, partial curve].
The same measure, in the same setting: as for `COc1ccc2c(c1)C(=NNC(=O)c1ccccn1)c1cc(OC)ccc1-2`, the figure is 1.03 µM [falling, full curve, poor fit]; as for `O=C(NC(=S)Nc1ccccc1F)C1CCCCC1`, 1.12 µM [rising, full curve, poor fit]; as for `CN(C(=O)c1ccc(NC(=O)Cc2ccc(NC(=O)C3CCN(C(=O)C4CC4)CC3)cc2)cc1)C1CC1`, 20.6 µM [rising, single point].
Same read-out and setting: as for `O=[N+]([O-])c1cccc(-c2nnc3ccc4ccccc4n23)c1`, the figure is 0.326 µM [rising, partial curve, poor fit].
With `COc1ccc2sc(-c3ccc(N(C)C)cc3)c(C#CC(C)(C)O)c2c1`, the AC50 under setting [1] is 8.2 µM [rising, partial curve] and the AC50 under setting [2] was 18.4 µM [falling, single point].
In the case of `CN1CCC(N(C)C(=O)c2cccc(S(=O)(=O)N3CCc4ccccc43)c2)CC1`, the concentration at half-maximal activity (AC50) under setting [1] was 9.2 µM [rising, partial curve].
On the same count and under the same terms, as for `Clc1ccc(-c2cc(-c3ccccn3)on2)c(Cl)c1`, the figure is 2.24 µM [rising, partial curve, poor fit]; as for `COC(=O)c1cnn2c(C(F)(F)F)cc(-c3ccccc3)nc12`, 2.91 µM [falling, full curve]; as for `C[C@@H](C(=O)NCc1c(F)cccc1Cl)N1C(=O)N2CCc3c([nH]c4ccccc34)[C@@]2(C)C1=O`, 14.1 µM [falling, single point].
Same read-out and setting: as for `COC(=O)c1ccccc1Oc1nc(Cl)cc(OC)n1`, the figure is 29.1 µM [rising, single point].
Regarding `CCN(CC)S(=O)(=O)c1ccc(C(=O)N2CCN=C2SCc2cccnc2)cc1`, the AC50 under setting [1] was 6.51 µM [rising, single point].
As for `CC(=O)Nc1nc2ccc(Br)cc2s1`, the AC50 is 1.26 µM [rising, full curve] under setting [1] and 11.2 µM [falling, partial curve, poor fit] under setting [2].
For `COc1ccc(/C=N/NC(=O)c2cc(-c3ccccc3OC)nc3ccccc23)cc1COC(C)=O`, the AC50 under setting [1] is 14.1 µM [falling, single point].
Turning to `Cc1ccc(S(=O)(=O)NC(C)C(c2cccs2)N2CCN(c3ccccc3)CC2)cc1` (configuration not stated), under setting [1], the AC50 was 0.116 µM [rising, full curve, poor fit].
Regarding `O=C(NCc1ccccc1)C1CCC(CNc2c(N3CCCCC3)c(=O)c2=O)CC1` (configuration not stated), the AC50 under setting [1] is 5.17 µM [rising, full curve].
On the same count and under the same terms, as for `COc1ccc(C(CC(=O)N2CCOCC2)c2c(O)cc(OC)cc2OC)cc1` (configuration not stated), the figure is 11.2 µM [rising, partial curve]; as for `Cc1ccccc1NC(=S)C1=C(O)c2sccc2N(C)S1(=O)=O`, 0.164 µM [falling, full curve, poor fit]; as for `CCN(CC)C(=O)CSc1nc2ccccc2c(=O)[nH]1`, 29.1 µM [falling, single point].
Turning to `O=C(Nc1ccc2nc(-c3ccccc3)[nH]c2c1)c1ccco1`, under setting [1], the AC50 was 25.9 µM [falling, single point].
Still for that read-out and setting: as for `O=C(Cc1ccc(Cl)cc1)Nc1ccc(Cl)cn1`, the figure is 0.251 µM [rising, full curve, poor fit]; as for `CCOC(=O)c1[nH]c(C)c(C(=O)NC2CCCCCC2)c1C`, 0.259 µM [rising, full curve, poor fit].
Still for that read-out and setting: the same measure for `S=c1[nH]nc(COc2ccccc2)n1/N=C/c1c(Cl)cccc1Cl`: 7.08 µM [rising, full curve, poor fit].
Same read-out and setting: the same measure for `Cc1ccc(N2CC(C(=O)NCc3n[nH]c(=O)c4ccccc34)CC2=O)cc1C` (configuration not stated): 16.4 µM [falling, partial curve]; for `CC(=O)C1=C(C)N(Cc2ccccc2)C(=O)N[C@H]1c1cccc(C(F)(F)F)c1`: 16.4 µM [falling, partial curve, poor fit]; for `O=C(c1cc2cc(Cl)ccc2[nH]1)N1CCN(Cc2ccc3c(c2)OCO3)CC1`: 11.2 µM [falling, partial curve].
As to `CCCOc1ccc(CSc2ncn[nH]2)cc1`, the AC50 under setting [1] is 4.11 µM [falling, partial curve, poor fit].
Regarding `O=C(CNC(=O)c1cccs1)c1ccc(F)cc1`, the AC50 under setting [1] is 14.6 µM [falling, partial curve].
With `Cc1ccnc(NC(=O)CSc2cc(=O)n(C)c3ccccc23)c1`, the half-maximal activity concentration (AC50) under setting [1] is 3.16 µM [falling, partial curve].
Same read-out and setting: as for `Cc1ccc(CNc2oc(C)nc2C#N)cc1`, the figure is 6.31 µM [rising, partial curve, poor fit]; as for `CN1CCC(=NNc2ccc(S(=O)(=O)N3CCOCC3)cc2[N+](=O)[O-])CC1`, 7.31 µM [falling, partial curve]; as for `O=C1CCCN1CCCNc1nc2c(S(=O)(=O)c3ccccc3)nnn2c2ccc(Cl)cc12`, 2.82 µM [falling, partial curve, poor fit].
Still for that read-out and setting: as for `Cc1ccc(-n2c(N)c(-c3nc4ccccc4n3C)sc2=S)cc1`, the figure is 20.6 µM [falling, single point]; as for `CC(C(=O)N1CCCCC1)n1sc2ccccc2c1=O` (configuration not stated), 5.8 µM [rising, partial curve, poor fit]; as for `CC(C)c1ccc(OCCCCCN2CCOCC2)cc1`, 0.1 µM [rising, full curve, poor fit].

As usually defined, the AC50 is the concentration at which the activity in the assay is half-maximal.
